According to article doi:10.1101/2024.07.10.602886:
Results are given in words; binding and its absence hold for the method and conditions named. In cells and extracts the contact can be indirect. Here binding means that the protein was enriched with, or labelled near, the bait; the list need not be complete.

Sequences of proteins named here, by UniProt entry; tags and fusion partners are left off. A change or cut given only in a name is not applied to a line headed by its entry.
UniProt Q9H1Y0: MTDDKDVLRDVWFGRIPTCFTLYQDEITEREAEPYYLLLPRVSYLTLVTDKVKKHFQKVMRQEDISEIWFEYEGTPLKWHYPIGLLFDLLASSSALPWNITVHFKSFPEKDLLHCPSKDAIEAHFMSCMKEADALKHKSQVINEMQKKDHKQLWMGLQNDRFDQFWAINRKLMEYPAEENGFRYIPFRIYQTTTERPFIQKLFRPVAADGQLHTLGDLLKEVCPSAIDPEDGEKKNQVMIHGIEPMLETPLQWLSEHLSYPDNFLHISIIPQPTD

Legend:
[1] = biological target: APEX2-ATG5 K130R (UniProt Q9H1Y0); experiment: proximity labelling; APEX2 proximity biotinylation in FlpIn-HeLa APEX2-ATG5-WT or -K130R cells; 500 uM biotin-phenol with or without 2 mM LLOMe for 30 min, 1 mM H2O2 for 1 min; streptavidin beads; DIA LC-MS/MS
[2] = biological target: APEX2-ATG5 WT (UniProt Q9H1Y0); experiment: as above

binding [1]: binds | binding [2]: binds
Substance: VPS26A (endogenous) (from UniProt O75436 1-327)
